In PMC5864832:
No constants are given. Whether binding was seen depends on the method and setting. Binding seen in cells or lysates may run through a third protein. Here binding means that the protein was enriched with, or labelled near, the bait; the list need not be complete.

Protein sequences, listed by entry. Tags and fused reporters are not part of them. Residues count along the entry.
UniProt P02545, residues 1-646: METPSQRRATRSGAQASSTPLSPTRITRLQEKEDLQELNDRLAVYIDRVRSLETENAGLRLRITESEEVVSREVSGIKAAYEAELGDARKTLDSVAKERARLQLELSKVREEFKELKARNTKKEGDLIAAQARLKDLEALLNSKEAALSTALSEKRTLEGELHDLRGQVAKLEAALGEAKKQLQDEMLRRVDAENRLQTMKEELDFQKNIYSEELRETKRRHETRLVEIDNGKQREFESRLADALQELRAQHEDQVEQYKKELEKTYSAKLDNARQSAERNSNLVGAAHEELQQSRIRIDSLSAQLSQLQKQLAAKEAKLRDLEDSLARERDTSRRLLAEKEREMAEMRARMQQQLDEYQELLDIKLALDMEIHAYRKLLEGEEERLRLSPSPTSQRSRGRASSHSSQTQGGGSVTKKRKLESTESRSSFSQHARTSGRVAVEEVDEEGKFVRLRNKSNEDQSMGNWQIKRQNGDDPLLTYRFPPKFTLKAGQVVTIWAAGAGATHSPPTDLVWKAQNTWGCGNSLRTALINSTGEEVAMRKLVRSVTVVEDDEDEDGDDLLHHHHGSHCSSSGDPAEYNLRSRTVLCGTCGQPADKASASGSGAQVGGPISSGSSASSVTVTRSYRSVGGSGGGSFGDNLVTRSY
UniProt P49790: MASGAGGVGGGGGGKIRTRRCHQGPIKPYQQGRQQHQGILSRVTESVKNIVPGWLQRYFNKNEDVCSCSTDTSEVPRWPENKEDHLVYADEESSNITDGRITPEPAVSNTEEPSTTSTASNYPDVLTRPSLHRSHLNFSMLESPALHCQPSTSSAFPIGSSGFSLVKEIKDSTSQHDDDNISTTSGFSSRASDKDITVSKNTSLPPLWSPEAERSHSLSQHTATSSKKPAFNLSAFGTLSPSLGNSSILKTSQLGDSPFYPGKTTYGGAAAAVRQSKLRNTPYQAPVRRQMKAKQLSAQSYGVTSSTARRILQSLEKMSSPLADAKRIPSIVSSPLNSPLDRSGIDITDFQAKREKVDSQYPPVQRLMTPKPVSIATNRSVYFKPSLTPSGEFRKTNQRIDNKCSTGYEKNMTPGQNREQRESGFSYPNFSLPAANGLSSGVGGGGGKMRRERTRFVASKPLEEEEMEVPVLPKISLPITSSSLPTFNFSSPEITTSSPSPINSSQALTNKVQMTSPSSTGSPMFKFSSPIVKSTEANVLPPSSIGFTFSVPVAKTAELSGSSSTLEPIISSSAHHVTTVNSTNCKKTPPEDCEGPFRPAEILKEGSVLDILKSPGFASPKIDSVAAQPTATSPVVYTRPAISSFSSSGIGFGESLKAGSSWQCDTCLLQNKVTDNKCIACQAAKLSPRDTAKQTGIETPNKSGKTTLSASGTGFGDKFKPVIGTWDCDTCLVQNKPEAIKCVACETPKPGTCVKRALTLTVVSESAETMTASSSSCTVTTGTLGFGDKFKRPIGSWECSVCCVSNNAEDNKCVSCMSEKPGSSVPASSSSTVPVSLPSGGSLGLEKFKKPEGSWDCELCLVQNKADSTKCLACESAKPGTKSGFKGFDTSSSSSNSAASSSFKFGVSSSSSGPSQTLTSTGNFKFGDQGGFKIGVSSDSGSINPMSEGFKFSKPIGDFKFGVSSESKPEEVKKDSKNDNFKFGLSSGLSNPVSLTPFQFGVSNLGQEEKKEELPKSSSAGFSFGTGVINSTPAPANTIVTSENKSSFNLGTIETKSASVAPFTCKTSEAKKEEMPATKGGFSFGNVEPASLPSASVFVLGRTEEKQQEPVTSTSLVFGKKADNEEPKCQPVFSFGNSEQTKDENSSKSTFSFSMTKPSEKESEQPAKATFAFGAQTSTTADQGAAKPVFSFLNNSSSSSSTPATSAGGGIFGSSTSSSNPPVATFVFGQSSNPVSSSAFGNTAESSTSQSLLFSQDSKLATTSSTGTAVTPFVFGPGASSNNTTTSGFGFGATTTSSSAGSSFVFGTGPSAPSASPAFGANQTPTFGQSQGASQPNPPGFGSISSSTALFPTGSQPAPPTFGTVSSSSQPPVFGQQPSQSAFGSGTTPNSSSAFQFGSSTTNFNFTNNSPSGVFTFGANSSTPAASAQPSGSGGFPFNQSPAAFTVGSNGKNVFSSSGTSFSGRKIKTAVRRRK
UniProt A8CG34: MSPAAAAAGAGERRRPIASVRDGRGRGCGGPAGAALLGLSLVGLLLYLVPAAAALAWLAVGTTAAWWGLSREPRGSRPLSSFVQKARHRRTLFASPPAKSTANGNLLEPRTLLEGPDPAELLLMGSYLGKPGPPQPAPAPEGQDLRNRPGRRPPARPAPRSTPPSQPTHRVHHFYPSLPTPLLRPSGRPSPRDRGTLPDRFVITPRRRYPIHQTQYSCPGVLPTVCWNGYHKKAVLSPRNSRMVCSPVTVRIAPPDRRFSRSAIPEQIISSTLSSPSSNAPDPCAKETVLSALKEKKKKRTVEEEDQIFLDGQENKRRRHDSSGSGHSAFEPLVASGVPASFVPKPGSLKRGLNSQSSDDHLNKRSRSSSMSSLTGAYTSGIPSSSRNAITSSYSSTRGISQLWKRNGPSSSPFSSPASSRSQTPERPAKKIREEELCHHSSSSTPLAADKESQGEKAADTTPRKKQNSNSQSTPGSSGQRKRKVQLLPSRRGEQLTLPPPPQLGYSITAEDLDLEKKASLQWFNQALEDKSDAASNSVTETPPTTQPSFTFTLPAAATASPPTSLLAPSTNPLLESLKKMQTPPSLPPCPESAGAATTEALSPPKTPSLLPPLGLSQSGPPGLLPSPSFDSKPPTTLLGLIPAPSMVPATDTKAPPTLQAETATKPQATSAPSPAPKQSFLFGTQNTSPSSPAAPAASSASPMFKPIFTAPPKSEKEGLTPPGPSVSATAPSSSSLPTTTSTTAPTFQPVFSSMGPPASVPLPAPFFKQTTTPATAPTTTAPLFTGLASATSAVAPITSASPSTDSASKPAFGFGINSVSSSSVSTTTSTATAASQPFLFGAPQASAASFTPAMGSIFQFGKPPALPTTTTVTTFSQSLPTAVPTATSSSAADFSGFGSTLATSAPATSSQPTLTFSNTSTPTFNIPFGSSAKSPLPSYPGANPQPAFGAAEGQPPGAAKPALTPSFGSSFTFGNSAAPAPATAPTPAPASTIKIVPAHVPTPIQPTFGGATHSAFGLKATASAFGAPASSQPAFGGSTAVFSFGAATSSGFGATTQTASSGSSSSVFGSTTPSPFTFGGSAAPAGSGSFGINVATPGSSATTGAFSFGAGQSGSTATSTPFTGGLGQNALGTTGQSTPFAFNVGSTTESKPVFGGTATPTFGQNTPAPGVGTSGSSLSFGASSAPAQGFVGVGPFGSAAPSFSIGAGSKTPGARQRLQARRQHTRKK
UniProt P52948, residues 1-880: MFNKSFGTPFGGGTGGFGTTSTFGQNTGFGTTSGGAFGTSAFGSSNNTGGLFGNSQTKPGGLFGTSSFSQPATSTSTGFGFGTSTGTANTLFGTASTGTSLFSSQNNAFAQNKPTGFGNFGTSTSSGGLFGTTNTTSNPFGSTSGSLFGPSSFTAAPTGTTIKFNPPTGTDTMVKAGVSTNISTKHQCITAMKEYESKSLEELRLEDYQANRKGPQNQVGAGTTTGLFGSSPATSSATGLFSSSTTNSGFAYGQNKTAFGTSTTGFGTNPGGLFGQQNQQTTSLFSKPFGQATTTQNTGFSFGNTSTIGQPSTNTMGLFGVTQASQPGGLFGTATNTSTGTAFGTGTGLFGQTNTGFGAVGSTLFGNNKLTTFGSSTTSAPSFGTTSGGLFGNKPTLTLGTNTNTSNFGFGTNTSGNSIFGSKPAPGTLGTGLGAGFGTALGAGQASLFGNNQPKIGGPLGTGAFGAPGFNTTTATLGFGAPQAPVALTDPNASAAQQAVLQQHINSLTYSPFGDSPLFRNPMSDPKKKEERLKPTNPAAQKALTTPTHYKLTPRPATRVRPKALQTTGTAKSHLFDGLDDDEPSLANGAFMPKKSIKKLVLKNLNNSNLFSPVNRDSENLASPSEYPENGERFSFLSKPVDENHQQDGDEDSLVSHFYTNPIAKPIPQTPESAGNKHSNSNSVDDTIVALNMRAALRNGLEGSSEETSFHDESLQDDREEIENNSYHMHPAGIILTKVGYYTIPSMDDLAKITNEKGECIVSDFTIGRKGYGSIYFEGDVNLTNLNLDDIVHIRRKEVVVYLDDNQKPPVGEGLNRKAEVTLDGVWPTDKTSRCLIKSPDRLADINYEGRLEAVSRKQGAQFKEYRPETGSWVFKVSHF
UniProt O00505: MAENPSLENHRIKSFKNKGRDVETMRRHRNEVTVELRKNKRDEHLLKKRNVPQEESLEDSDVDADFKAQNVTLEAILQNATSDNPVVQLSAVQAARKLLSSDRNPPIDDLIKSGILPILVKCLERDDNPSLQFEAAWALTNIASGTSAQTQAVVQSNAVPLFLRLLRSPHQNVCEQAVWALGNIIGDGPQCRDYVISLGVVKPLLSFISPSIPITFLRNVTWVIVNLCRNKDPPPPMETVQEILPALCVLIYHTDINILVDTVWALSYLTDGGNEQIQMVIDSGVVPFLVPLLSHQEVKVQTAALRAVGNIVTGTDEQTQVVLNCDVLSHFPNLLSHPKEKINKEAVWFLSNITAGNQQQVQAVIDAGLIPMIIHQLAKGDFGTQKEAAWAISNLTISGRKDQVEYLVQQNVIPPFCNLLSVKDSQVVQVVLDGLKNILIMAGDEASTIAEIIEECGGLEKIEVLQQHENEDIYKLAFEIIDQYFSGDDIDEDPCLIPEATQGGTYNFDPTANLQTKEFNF
UniProt O15131: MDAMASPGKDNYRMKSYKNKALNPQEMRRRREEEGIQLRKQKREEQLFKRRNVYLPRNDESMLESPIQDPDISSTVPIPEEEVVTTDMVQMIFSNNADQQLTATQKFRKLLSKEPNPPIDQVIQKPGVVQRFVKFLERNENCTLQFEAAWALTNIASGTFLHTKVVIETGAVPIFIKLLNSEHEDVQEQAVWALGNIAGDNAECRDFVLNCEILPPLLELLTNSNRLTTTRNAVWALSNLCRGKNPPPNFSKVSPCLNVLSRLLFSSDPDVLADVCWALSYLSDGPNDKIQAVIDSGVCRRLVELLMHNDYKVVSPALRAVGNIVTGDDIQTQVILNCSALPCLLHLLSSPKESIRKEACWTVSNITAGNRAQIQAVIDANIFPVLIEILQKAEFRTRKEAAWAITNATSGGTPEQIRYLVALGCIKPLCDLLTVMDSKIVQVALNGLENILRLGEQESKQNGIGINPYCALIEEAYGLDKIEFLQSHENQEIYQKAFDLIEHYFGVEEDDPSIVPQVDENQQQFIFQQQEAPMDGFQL
UniProt Q96HA1: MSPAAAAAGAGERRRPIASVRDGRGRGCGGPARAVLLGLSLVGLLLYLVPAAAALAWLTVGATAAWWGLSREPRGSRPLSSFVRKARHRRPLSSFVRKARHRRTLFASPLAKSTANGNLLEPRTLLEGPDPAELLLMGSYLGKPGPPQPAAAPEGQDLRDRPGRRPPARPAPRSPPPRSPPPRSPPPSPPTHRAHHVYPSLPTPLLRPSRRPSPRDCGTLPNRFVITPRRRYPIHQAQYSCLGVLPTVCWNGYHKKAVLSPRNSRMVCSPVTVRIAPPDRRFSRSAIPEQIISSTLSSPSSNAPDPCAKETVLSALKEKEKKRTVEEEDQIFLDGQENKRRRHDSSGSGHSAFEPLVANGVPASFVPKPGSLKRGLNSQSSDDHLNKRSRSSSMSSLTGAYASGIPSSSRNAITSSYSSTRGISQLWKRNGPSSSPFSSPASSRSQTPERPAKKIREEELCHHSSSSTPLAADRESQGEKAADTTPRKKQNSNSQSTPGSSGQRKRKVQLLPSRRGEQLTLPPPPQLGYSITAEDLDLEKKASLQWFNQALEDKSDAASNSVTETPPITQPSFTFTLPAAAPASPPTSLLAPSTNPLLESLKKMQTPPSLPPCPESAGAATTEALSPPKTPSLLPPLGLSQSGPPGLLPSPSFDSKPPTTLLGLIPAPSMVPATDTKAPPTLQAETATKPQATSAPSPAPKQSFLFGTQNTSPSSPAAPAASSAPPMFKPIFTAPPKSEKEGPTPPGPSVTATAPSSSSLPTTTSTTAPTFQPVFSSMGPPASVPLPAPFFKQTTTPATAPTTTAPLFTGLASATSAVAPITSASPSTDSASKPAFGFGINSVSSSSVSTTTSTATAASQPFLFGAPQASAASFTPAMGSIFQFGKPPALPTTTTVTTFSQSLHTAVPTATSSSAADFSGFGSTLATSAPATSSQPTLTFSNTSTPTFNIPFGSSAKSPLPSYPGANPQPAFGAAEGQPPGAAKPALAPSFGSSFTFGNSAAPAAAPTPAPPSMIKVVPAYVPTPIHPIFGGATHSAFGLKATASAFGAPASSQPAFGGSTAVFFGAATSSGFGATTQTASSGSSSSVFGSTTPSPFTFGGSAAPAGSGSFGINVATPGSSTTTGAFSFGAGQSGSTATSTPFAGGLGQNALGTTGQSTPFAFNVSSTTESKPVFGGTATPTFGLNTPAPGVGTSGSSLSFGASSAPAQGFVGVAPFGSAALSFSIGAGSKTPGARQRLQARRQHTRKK

B1: Nuclear pore complex protein Nup (NU) 107 (protein, UniProt P57740 1-925)
chain: MDRSGFGEISSPVIREAEVTRTARKQSAQKRVLLQASQDENFGNTTPRNQVIPRTPSSFRQPFTPTSRSLLRQPDISCILGTGGKSPRLTQSSGFFGNLSMVTNLDDSNWAAAFSSQRSGLFTNTEPHSITEDVTISAVMLREDDPGEAASMSMFSDFLQSFLKHSSSTVFDLVEEYENICGSQVNILSKIVSRATPGLQKFSKTASMLWLLQQEMVTWRLLASLYRDRIQSALEEESVFAVTAVNASEKTVVEALFQRDSLVRQSQLVVDWLESIAKDEIGEFSDNIEFYAKSVYWENTLHTLKQRQLTSYVGSVRPLVTELDPDAPIRQKMPLDDLDREDEVRLLKYLFTLIRAGMTEEAQRLCKRCGQAWRAATLEGWKLYHDPNVNGGTELEPVEGNPYRRIWKISCWRMAEDELFNRYERAIYAALSGNLKQLLPVCDTWEDTVWAYFRVMVDSLVEQEIQTSVATLDETEELPREYLGANWTLEKVFEELQATDKKRVLEENQEHYHIVQKFLILGDIDGLMDEFSKWLSKSRNNLPGHLLRFMTHLILFFRTLGLQTKEEVSIEVLKTYIQLLIREKHTNLIAFYTCHLPQDLAVAQYALFLESVTEFEQRHHCLELAKEADLDVATITKTVVENIRKKDNGEFSHHDLAPALDTGTTEEDRLKIDVIDWLVFDPAQRAEALKQGNAIMRKFLASKKHEAAKEVFVKIPQDSIAEIYNQCEEQGMESPLPAEDDNAIREHLCIRAYLEAHETFNEWFKHMNSVPQKPALIPQPTFTEKVAHEHKEKKYEMDFGIWKGHLDALTADVKEKMYNVLLFVDGGWMVDVREDAKEDHERTHQMVLLRKLCLPMLCFLLHTILHSTGQYQECLQLADMVSSERHKLYLVFSKEELRKLLQKLRESSLMLLDQGLDPLGYEIQL
B2: NU133 (protein, UniProt Q8WUM0 1-1156)
chain: MFPAAPSPRTPGTGSRRGPLAGLGPGSTPRTASRKGLPLGSAVSSPVLFSPVGRRSSLSSRGTPTRMFPHHSITESVNYDVKTFGSSLPVKVMEALTLAEVDDQLTINIDEGGWACLVCKEKLIIWKIALSPITKLSVCKELQLPPSDFHWSADLVALSYSSPSGEAHSTQAVAVMVATREGSIRYWPSLAGEDTYTEAFVDSGGDKTYSFLTAVQGGSFILSSSGSQLIRLIPESSGKIHQHILPQGQGMLSGIGRKVSSLFGILSPSSDLTLSSVLWDRERSSFYSLTSSNISKWELDDSSEKHAYSWDINRALKENITDAIWGSESNYEAIKEGVNIRYLDLKQNCDGLVILAAAWHSADNPCLIYYSLITIEDNGCQMSDAVTVEVTQYNPPFQSEDLILCQLTVPNFSNQTAYLYNESAVYVCSTGTGKFSLPQEKIVFNAQGDSVLGAGACGGVPIIFSRNSGLVSITSRENVSILAEDLEGSLASSVAGPNSESMIFETTTKNETIAQEDKIKLLKAAFLQYCRKDLGHAQMVVDELFSSHSDLDSDSELDRAVTQISVDLMDDYPASDPRWAESVPEEAPGFSNTSLIILHQLEDKMKAHSFLMDFIHQVGLFGRLGSFPVRGTPMATRLLLCEHAEKLSAAIVLKNHHSRLSDLVNTAILIALNKREYEIPSNLTPADVFFREVSQVDTICECLLEHEEQVLRDAPMDSIEWAEVVINVNNILKDMLQAASHYRQNRNSLYRREESLEKEPEYVPWTATSGPGGIRTVIIRQHEIVLKVAYPQADSNLRNIVTEQLVALIDCFLDGYVSQLKSVDKSSNRERYDNLEMEYLQKRSDLLSPLLSLGQYLWAASLAEKYCDFDILVQMCEQTDNQSRLQRYMTQFADQNFSDFLFRWYLEKGKRGKLLSQPISQHGQLANFLQAHEHLSWLHEINSQELEKAHATLLGLANMETRYFAKKKTLLGLSKLAALASDFSEDMLQEKIEEMAEQERFLLHQETLPEQLLAEKQLNLSAMPVLTAPQLIGLYICEENRRANEYDFKKALDLLEYIDEEEDININDLKLEILCKALQRDNWSSSDGKDDPIEVSKDSIFVKILQKLLKDGIQLSEYLPEVKDLLQADQLGSLKSNPYFEFVLKANYEYYVQGQI
B3: NU155 (protein, UniProt O75694 1-1391)
chain: MPSSLLGAAMPASTSAAALQEALENAGRLIDRQLQEDRMYPDLSELLMVSAPNNPTVSGMSDMDYPLQGPGLLSVPNLPEISSIRRVPLPPELVEQFGHMQCNCMMGVFPPISRAWLTIDSDIFMWNYEDGGDLAYFDGLSETILAVGLVKPKAGIFQPHVRHLLVLATPVDIVILGLSYANLQTGSGVLNDSLSGGMQLLPDPLYSLPTDNTYLLTITSTDNGRIFLAGKDGCLYEVAYQAEAGWFSQRCRKINHSKSSLSFLVPSLLQFTFSEDDPILQIAIDNSRNILYTRSEKGVIQVYDLGQDGQGMSRVASVSQNAIVSAAGNIARTIDRSVFKPIVQIAVIENSESLDCQLLAVTHAGVRLYFSTCPFRQPLARPNTLTLVHVRLPPGFSASSTVEKPSKVHRALYSKGILLMAASENEDNDILWCVNHDTFPFQKPMMETQMTAGVDGHSWALSAIDELKVDKIITPLNKDHIPITDSPVVVQQHMLPPKKFVLLSAQGSLMFHKLRPVDQLRHLLVSNVGGDGEEIERFFKLHQEDQACATCLILACSTAACDREVSAWATRAFFRYGGEAQMRFPTTLPPPSNVGPILGSPVYSSSPVPSGSPYPNPSFLGTPSHGIQPPAMSTPVCALGNPATQATNMSCVTGPEIVYSGKHNGICIYFSRIMGNIWDASLVVERIFKSGNREITAIESSVPCQLLESVLQELKGLQEFLDRNSQFAGGPLGNPNTTAKVQQRLIGFMRPENGNPQQMQQELQRKFHEAQLSEKISLQAIQQLVRKSYQALALWKLLCEHQFTIIVAELQKELQEQLKITTFKDLVIRDKELTGALIASLINCYIRDNAAVDGISLHLQDICPLLYSTDDAICSKANELLQRSRQVQNKTEKERMLRESLKEYQKISNQVDLSNVCAQYRQVRFYEGVVELSLTAAEKKDPQGLGLHFYKHGEPEEDIVGLQAFQERLNSYKCITDTLQELVNQSKAAPQSPSVPKKPGPPVLSSDPNMLSNEEAGHHFEQMLKLSQRSKDELFSIALYNWLIQVDLADKLLQVASPFLEPHLVRMAKVDQNRVRYMDLLWRYYEKNRSFSNAARVLSRLADMHSTEISLQQRLEYIARAILSAKSSTAISSIAADGEFLHELEEKMEVARIQLQIQETLQRQYSHHSSVQDAVSQLDSELMDITKLYGEFADPFKLAECKLAIIHCAGYSDPILVQTLWQDIIEKELSDSVTLSSSDRMHALSLKIVLLGKIYAGTPRFFPLDFIVQFLEQQVCTLNWDVGFVIQTMNEIGVPLPRLLEVYDQLFKSRDPFWNRMKKPLHLLDCIHVLLIRYVENPSQVLNCERRRFTNLCLDAVCGYLVELQSMSSSVAVQAITGNFKSLQAKLERLH
B4: NU160 (protein, UniProt Q12769 1-1436)
chain: MLHLSAAPPAPPPEVTATARPCLCSVGRRGDGGKMAAAGALERSFVELSGAERERPRHFREFTVCSIGTANAVAGAVKYSESAGGFYYVESGKLFSVTRNRFIHWKTSGDTLELMEESLDINLLNNAIRLKFQNCSVLPGGVYVSETQNRVIILMLTNQTVHRLLLPHPSRMYRSELVVDSQMQSIFTDIGKVDFTDPCNYQLIPAVPGISPNSTASTAWLSSDGEALFALPCASGGIFVLKLPPYDIPGMVSVVELKQSSVMQRLLTGWMPTAIRGDQSPSDRPLSLAVHCVEHDAFIFALCQDHKLRMWSYKEQMCLMVADMLEYVPVKKDLRLTAGTGHKLRLAYSPTMGLYLGIYMHAPKRGQFCIFQLVSTESNRYSLDHISSLFTSQETLIDFALTSTDIWALWHDAENQTVVKYINFEHNVAGQWNPVFMQPLPEEEIVIRDDQDPREMYLQSLFTPGQFTNEALCKALQIFCRGTERNLDLSWSELKKEVTLAVENELQGSVTEYEFSQEEFRNLQQEFWCKFYACCLQYQEALSHPLALHLNPHTNMVCLLKKGYLSFLIPSSLVDHLYLLPYENLLTEDETTISDDVDIARDVICLIKCLRLIEESVTVDMSVIMEMSCYNLQSPEKAAEQILEDMITIDVENVMEDICSKLQEIRNPIHAIGLLIREMDYETEVEMEKGFNPAQPLNIRMNLTQLYGSNTAGYIVCRGVHKIASTRFLICRDLLILQQLLMRLGDAVIWGTGQLFQAQQDLLHRTAPLLLSYYLIKWGSECLATDVPLDTLESNLQHLSVLELTDSGALMANRFVSSPQTIVELFFQEVARKHIISHLFSQPKAPLSQTGLNWPEMITAITSYLLQLLWPSNPGCLFLECLMGNCQYVQLQDYIQLLHPWCQVNVGSCRFMLGRCYLVTGEGQKALECFCQAASEVGKEEFLDRLIRSEDGEIVSTPRLQYYDKVLRLLDVIGLPELVIQLATSAITEAGDDWKSQATLRTCIFKHHLDLGHNSQAYEALTQIPDSSRQLDCLRQLVVVLCERSQLQDLVEFPYVNLHNEVVGIIESRARAVDLMTHNYYELLYAFHIYRHNYRKAGTVMFEYGMRLGREVRTLRGLEKQGNCYLAALNCLRLIRPEYAWIVQPVSGAVYDRPGASPKRNHDGECTAAPTNRQIEILELEDLEKECSLARIRLTLAQHDPSAVAVAGSSSAEEMVTLLVQAGLFDTAISLCQTFKLPLTPVFEGLAFKCIKLQFGGEAAQAEAWAWLAANQLSSVITTKESSATDEAWRLLSTYLERYKVQNNLYHHCVINKLLSHGVPLPNWLINSYKKVDAAELLRLYLNYDLLEEAVDLVSEYVDAVLGKGHQYFGIEFPLSATAPMVWLPYSSIDQLLQALGENSANSHNIALSQKILDKLEDYQQKVDKATRDLLYRRTL
B5: NUP85 (protein, UniProt Q9BW27 1-656)
chain: MEELDGEPTVTLIPGVNSKKNQMYFDWGPGEMLVCETSFNKKEKSEMVPSCPFIYIIRKDVDVYSQILRKLFNESHGIFLGLQRIDEELTGKSRKSQLVRVSKNYRSVIRACMEEMHQVAIAAKDPANGRQFSSQVSILSAMELIWNLCEILFIEVAPAGPLLLHLLDWVRLHVCEVDSLSADVLGSENPSKHDSFWNLVTILVLQGRLDEARQMLSKEADASPASAGICRIMGDLMRTMPILSPGNTQTLTELELKWQHWHEECERYLQDSTFATSPHLESLLKIMLGDEAALLEQKELLSNWYHFLVTRLLYSNPTVKPIDLHYYAQSSLDLFLGGESSPEPLDNILLAAFEFDIHQVIKECSIALSNWWFVAHLTDLLDHCKLLQSHNLYFGSNMREFLLLEYASGLFAHPSLWQLGVDYFDYCPELGRVSLELHIERIPLNTEQKALKVLRICEQRQMTEQVRSICKILAMKAVRNNRLGSALSWSIRAKDAAFATLVSDRFLRDYCERGCFSDLDLIDNLGPAMMLSDRLTFLGKYREFHRMYGEKRFADAASLLLSLMTSRIAPRSFWMTLLTDALPLLEQKQVIFSAEQTYELMRCLEDLTSRRPVHGESDTEQLQDDDIETTKVEMLRLSLARNLARAIIREGSLEGS

Biological target: Prelamin-A/C (human) (UniProt P02545)
Test: proximity labelling; BioID: MAC-tagged bait in stable Flp-In T-REx 293 cells, tetracycline and 50 uM biotin 24 h; lysis buffer 2 (as buffer 1 with 0.1% SDS), sonication, benzonase; biotinylated proteins on Strep-Tactin beads; LC-MS; SAINT and CRAPome filter

Row | Molecule | binding
1 | NU153 (from UniProt P49790 1-1475) | binds
2 | nuclear envelope pore membrane protein POM 121C (from UniProt A8CG34 1-1229) | binds
3 | NUP98 (from UniProt P52948 1-880) | binds
4 | importin subunit beta-1 (from UniProt Q14974 1-876) (other; other documents disagree on this pair) | binds
5 | importin subunit alpha IMA4 (from UniProt O00505 1-521) | binds
6 | importin subunit alpha IMA6 (from UniProt O15131 1-539) | binds
7 | importin subunit alpha IMA3 (from UniProt O00629 1-521) | binds
8 | nuclear envelope pore membrane protein POM 121A (from UniProt Q96HA1 1-1249) | binds
9 | ELYS (from UniProt Q8WYP5 1-2266) | binds
10 | B1 | binds
11 | B2 | binds
12 | B3 | binds
13 | B4 | binds
14 | B5 | binds
